Test [1] concerns the target Ppp3ca (calcineurin catalytic subunit), endogenous (mouse (endogenous in primary BMSCs)) (UniProt P63328). In words: co-IP; IP of endogenous Ppp3ca from mouse primary BMSC lysates; IP with IgG as negative control; Western blot for Nfatc1, Yap1 and Ctnnb1; cells treated with Yoda1 or CsA.
Test [2] addresses T1, NFATc1-Flag (from plasmid pcDNA3.0-NFATc1-Flag) (UniProt O95644).
T1 sequence: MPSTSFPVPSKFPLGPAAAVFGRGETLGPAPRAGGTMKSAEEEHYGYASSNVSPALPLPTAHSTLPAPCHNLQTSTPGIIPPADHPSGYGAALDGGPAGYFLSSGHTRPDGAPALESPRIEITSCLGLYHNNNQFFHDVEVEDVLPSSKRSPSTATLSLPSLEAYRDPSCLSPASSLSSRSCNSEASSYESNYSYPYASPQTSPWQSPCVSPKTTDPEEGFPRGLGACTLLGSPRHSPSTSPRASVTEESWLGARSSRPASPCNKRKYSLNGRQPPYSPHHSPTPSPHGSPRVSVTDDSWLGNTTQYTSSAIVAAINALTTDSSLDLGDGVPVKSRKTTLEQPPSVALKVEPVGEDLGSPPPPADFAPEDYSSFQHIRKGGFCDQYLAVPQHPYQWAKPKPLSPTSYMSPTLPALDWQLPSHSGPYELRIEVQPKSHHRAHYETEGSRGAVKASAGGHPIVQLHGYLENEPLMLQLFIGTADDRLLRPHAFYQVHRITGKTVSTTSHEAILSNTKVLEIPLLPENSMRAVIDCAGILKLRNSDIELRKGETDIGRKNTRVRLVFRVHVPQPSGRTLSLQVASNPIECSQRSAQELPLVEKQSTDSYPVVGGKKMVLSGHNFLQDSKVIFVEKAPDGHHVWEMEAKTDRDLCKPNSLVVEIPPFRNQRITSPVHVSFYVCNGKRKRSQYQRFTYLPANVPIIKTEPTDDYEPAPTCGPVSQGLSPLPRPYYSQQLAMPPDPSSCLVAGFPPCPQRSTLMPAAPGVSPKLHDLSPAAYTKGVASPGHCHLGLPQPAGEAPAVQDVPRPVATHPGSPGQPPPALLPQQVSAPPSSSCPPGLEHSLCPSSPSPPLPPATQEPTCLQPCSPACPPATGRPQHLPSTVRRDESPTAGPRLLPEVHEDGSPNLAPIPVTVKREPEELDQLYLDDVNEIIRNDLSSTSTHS
In words: co-IP; IP of HEK293T cell lysates with the indicated expression constructs (NFATc1-Flag, YAP-HA, β-catenin-Myc, two or all three together); cells lysed in RIPA buffer with protease inhibitors; Western blot; cells treated with shaking (FSS), Yoda1 (40 μM, 4 hr), CsA or Gd3+. A general note: A western blot detects proteins with antibodies after separation by electrophoresis.

Chains of the proteins cited; added tags and fusions are not shown.
UniProt P46937: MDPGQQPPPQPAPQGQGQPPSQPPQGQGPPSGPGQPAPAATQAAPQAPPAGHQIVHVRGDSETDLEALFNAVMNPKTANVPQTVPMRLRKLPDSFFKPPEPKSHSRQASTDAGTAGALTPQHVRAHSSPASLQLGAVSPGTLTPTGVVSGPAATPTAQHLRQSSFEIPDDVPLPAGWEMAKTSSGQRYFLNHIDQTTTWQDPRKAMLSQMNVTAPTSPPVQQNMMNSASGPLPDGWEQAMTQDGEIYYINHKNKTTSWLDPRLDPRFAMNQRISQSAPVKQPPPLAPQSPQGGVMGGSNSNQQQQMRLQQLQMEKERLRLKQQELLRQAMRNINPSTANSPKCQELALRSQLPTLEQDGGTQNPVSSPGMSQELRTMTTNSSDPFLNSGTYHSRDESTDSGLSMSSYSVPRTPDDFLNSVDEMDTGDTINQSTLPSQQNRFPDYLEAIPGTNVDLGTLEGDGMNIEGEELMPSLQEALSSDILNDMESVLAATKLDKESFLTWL
UniProt P46938: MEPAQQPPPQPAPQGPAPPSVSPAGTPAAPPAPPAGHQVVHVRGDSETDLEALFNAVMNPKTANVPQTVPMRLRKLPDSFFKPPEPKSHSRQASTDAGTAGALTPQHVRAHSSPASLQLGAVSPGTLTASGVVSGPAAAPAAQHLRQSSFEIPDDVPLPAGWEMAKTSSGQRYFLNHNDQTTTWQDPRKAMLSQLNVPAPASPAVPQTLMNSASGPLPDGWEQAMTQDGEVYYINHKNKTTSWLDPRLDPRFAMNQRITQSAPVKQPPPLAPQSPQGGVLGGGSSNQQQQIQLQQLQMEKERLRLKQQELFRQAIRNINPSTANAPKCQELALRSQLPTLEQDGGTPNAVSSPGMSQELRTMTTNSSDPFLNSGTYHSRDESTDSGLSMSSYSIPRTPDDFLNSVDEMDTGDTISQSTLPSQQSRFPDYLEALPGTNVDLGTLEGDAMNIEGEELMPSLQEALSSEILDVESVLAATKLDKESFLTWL
UniProt P35222: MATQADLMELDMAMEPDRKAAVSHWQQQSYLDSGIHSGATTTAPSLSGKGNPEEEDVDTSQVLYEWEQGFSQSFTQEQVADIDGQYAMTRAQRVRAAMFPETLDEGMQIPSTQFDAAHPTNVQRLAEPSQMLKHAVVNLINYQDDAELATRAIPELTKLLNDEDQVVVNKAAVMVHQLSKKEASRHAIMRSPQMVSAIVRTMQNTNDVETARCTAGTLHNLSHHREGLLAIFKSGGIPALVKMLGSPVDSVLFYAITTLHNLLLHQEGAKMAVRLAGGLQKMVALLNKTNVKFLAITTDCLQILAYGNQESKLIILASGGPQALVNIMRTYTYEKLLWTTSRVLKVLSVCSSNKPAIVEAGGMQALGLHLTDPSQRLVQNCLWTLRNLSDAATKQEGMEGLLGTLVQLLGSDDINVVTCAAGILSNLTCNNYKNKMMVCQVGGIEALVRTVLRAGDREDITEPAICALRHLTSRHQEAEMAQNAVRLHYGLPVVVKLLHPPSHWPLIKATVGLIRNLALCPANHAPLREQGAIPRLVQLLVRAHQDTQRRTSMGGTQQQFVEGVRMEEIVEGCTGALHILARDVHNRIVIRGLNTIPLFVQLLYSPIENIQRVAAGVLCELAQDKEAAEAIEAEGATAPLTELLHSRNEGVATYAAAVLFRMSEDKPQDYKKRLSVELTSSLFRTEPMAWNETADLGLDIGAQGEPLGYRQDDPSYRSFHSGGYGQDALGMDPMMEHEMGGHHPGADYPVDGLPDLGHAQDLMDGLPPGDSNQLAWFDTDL

These are yes or no findings as the source states them, for the method shown. In cells and extracts the contact can be indirect. Some binding calls cover weakened binding; strength is not graded here. For some assays here: Sequences can lack the tags named with a protein.

These results are taken from article PMC7112954.

“Ctnnb1 (β-catenin), endogenous (from UniProt Q02248 1-781)”: the binding entry in test [1] was “binds”.
For the molecule “YAP-HA (HA-tagged YAP1, from plasmid pcDNA3.0-YAP-HA) (from UniProt P46937 1-504)”, the binding result in test [2] is listed as “binds”.
Turning to “Yap1, endogenous (from UniProt P46938 1-488)”, in test [1], the binding result is given as “binds”.
Regarding “β-catenin-Myc (from plasmid pcDNA3.0-β-catenin-Myc) (from UniProt P35222 1-781)”, in test [2], the binding result is recorded as “binds”.

B1: Nfatc1, endogenous (protein, UniProt O88942 1-717)
chain: MPNTSFPVPSKFPLGPPAAVCGSGETLRPAPPSGGTMKAAEEEHYSYVSPSVTSTLPLPTAHSALPAACHDLQTSTPGISAVPSANHPPSYGGAVDSGPSGYFLSSGNTRPNGAPTLESPRIEITSYLGLHHGSGQFFHDVEVEDVLPSCKRSPSTATLHLPSLEAYRDPSCLSPASSLSSRSCNSEASSYESNYSYPYASPQTSPWQSPCVSPKTTDPEEGFPRSLGACHLLGSPRHSPSTSPRASITEESWLGARGSRPTSPCNKRKYSLNGRQPSCSPHHSPTPSPHGSPRVSVTEDTWLGNTTQYTSSAIVAAINALTTDSTLDLGDGVPIKSRKTALEHAPSVALKVEPAGEDLGTTPPTSDFPPEEYTFQHLRKGAFCEQYLSVPQASYQWAKPKSLSPTSYMSPSLPALDWQLPSHSGPYELRIEVQPKSHHRAHYETEGSRGAVKASAGGHPIVQLHGYLENEPLTLQLFIGTADDRLLRPHAFYQVHRITGKTVSTTSHEIILSNTKVLEIPLLPENNMRAIIDCAGILKLRNSDIELRKGETDIGRKNTRVRLVFRVHIPQPNGRTLSLQVASNPIECSQRSAQELPLVEKQSTDSYPVIGGKKMVLSGHNFLQDSKVIFVEKAPDGHHVWEMEAKTDRDLCKPNSLVVEIPPFRNQRITSPAQVSFYVCNGKRKRSQYQRFTYLPANGNSVFLTLSSESELRGGFY
Take B1: the binding entry in test [1] is “binds”.
